In the supplement of paper PMC6411743:
± gives the standard deviation of the averaged measurements. The entries are a selection whose mix differs from that of the whole data set. Small differences around the control level are noise.

The chains behind the UniProt entries cited, without tags or fusion partners. Where a name states a change or a piece, a line headed by the entry shows the natural chain unless it says otherwise.
UniProt Q9UK59: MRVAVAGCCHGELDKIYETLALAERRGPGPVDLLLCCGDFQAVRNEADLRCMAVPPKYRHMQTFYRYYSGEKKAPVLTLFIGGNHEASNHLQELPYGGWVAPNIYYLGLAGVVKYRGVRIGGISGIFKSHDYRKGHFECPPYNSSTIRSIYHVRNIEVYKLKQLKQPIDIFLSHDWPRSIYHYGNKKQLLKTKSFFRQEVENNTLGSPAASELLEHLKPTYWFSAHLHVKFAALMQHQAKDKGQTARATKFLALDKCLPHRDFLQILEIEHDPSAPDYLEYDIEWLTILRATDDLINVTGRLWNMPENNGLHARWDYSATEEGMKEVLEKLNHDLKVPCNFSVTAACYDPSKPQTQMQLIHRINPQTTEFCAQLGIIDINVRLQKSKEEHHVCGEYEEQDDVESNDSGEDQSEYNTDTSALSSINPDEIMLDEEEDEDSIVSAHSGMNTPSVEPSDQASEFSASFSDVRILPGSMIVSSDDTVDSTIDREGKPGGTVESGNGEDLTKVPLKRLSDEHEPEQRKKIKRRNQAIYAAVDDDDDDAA
UniProt Q9UEY8: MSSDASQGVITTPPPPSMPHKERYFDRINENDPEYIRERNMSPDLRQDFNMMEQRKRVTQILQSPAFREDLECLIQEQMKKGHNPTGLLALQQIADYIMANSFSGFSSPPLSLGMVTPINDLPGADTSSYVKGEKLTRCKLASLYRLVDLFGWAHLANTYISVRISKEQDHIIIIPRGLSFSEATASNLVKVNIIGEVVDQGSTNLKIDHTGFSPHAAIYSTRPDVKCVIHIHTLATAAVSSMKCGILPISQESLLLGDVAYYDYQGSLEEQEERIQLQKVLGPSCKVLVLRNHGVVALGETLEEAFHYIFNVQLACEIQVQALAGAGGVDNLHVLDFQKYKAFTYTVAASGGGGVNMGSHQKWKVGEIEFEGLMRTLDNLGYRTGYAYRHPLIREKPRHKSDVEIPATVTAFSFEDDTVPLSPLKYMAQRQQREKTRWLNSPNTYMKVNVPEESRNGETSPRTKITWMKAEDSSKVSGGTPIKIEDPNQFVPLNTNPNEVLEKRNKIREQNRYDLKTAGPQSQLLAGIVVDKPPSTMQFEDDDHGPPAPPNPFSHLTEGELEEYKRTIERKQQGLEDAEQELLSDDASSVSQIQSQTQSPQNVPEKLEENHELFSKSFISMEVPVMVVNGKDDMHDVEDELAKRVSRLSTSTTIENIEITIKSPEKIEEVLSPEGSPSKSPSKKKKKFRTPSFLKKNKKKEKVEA
UniProt Q9ULI0: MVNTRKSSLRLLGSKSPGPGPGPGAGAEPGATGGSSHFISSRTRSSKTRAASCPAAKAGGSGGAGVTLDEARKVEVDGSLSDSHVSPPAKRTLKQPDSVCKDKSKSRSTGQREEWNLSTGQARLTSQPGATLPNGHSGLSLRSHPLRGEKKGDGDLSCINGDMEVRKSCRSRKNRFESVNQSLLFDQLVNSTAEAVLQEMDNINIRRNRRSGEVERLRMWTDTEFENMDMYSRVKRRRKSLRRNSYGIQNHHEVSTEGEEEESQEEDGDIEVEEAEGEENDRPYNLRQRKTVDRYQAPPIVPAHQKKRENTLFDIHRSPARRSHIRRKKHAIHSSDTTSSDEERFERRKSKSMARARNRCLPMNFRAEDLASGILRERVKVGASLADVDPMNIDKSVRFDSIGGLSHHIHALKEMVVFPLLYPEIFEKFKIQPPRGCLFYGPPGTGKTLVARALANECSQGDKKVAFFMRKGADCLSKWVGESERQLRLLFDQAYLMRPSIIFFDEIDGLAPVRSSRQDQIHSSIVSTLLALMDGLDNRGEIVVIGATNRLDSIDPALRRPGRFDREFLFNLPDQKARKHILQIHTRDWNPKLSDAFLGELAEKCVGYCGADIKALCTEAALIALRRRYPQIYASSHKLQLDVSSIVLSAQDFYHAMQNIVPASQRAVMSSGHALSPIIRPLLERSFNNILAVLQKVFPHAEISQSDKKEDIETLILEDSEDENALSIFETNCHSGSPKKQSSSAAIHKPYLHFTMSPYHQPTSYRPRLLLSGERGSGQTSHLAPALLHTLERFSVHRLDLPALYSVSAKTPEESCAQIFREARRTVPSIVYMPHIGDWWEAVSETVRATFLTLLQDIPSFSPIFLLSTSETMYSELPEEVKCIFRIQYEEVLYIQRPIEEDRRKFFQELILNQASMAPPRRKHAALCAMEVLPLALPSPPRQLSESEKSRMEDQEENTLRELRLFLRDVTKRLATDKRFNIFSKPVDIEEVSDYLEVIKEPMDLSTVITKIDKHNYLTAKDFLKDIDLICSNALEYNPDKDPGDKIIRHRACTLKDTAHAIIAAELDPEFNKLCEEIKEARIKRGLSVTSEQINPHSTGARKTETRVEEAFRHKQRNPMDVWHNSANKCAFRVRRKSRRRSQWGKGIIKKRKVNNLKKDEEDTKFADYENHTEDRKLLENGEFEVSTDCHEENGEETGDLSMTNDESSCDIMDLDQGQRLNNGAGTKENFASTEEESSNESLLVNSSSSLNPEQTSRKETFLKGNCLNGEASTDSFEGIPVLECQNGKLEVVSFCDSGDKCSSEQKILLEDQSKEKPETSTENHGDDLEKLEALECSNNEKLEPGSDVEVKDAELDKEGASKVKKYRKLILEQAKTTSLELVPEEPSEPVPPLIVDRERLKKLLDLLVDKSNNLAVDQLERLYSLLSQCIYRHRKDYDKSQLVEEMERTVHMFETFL
UniProt Q9Y217: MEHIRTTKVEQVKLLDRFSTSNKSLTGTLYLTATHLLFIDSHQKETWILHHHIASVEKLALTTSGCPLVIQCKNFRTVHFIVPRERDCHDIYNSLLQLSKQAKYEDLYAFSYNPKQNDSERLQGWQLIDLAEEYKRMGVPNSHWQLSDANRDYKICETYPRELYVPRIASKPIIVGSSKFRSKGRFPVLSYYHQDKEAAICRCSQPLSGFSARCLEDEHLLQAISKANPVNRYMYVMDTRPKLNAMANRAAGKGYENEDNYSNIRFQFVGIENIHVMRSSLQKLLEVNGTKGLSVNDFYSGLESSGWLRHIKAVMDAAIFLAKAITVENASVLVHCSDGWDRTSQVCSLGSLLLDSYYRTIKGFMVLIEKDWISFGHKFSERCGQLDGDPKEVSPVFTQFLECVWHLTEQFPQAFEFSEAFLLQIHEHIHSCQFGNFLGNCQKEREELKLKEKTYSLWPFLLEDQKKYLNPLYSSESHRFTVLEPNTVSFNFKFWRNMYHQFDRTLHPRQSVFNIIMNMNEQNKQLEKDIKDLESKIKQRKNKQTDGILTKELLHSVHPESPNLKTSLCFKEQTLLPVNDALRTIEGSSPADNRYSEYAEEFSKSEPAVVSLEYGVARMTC
UniProt Q9UL15: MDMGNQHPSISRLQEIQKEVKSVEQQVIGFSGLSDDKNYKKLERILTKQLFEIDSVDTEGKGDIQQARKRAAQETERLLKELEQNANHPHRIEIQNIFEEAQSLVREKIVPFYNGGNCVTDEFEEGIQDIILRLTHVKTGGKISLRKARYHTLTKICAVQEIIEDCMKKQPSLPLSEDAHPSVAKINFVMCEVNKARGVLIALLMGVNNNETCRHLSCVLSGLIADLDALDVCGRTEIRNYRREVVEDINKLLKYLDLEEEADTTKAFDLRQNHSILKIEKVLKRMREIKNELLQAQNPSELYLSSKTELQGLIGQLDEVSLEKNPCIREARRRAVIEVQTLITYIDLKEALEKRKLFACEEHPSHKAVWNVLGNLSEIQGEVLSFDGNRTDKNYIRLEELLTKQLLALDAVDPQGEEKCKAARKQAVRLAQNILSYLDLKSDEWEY
UniProt Q9UKI8: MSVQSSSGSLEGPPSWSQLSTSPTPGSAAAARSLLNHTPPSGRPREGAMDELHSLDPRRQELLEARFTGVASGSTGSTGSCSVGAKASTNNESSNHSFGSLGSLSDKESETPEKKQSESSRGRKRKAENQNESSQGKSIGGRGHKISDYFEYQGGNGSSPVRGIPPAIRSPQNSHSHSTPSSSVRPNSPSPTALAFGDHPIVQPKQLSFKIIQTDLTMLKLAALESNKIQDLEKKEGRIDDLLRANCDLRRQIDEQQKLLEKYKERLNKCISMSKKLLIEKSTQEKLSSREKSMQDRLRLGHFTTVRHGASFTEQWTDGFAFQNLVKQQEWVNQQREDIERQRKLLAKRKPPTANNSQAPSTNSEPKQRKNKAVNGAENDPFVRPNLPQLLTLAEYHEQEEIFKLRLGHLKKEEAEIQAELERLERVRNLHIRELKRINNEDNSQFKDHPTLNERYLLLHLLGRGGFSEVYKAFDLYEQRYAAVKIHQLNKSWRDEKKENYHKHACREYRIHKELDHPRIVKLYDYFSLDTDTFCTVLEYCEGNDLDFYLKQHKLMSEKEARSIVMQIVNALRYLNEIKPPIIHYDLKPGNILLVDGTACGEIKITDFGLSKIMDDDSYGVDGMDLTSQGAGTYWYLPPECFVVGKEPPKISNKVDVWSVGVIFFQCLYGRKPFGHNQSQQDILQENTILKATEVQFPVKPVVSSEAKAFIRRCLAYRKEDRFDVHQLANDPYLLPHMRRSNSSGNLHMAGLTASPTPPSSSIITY
UniProt Q9UIV1, whole entry: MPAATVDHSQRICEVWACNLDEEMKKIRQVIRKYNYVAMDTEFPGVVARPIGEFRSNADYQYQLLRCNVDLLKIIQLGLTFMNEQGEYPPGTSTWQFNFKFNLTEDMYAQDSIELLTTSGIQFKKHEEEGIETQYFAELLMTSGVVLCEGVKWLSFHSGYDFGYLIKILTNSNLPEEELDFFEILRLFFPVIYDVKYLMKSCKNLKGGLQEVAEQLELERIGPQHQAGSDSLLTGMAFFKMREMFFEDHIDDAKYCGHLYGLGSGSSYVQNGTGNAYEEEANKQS
UniProt Q9ULE6: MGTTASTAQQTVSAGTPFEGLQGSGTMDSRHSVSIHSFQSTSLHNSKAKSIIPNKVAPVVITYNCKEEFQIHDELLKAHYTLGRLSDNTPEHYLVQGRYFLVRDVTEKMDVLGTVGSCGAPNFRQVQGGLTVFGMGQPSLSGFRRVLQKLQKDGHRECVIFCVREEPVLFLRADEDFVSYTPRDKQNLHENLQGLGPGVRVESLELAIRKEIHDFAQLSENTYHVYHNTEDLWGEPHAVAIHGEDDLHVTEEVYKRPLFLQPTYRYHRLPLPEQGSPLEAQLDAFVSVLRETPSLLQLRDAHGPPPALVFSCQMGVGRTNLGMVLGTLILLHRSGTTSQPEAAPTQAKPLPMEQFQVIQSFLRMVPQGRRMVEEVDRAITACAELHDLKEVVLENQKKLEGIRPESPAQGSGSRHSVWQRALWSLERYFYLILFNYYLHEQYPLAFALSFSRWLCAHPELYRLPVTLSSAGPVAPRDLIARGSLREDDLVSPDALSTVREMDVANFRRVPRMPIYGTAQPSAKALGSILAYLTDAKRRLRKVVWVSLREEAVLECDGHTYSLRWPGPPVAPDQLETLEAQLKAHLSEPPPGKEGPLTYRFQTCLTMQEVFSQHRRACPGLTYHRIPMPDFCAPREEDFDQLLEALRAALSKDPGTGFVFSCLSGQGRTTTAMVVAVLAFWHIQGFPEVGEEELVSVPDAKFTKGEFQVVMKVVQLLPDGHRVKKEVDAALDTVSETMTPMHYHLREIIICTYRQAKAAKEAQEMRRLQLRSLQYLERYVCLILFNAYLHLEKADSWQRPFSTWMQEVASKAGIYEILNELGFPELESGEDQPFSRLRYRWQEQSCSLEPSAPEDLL

Compound: Nc1ncnc2c1ncn2[C@@H]1O[C@H](COP(=O)(O)OP(=O)(O)OP(=O)(O)O)[C@@H](O)[C@H]1O [adenosine triphosphate]
Assay: NP40-soluble protein abundance relative to vehicle (solubility fold change) (ratio); higher = more soluble protein in presence of ATP
Outline: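 In three independent experiments, Jurkat crude lysate made by Dounce homogenisation was treated for 10 min at room temperature and then 3 min at 37 °C with eight concentrations ranging from 0.1 to 10 mM. It was then solubilised with 0.8% NP40 plus benzonase for 60 min at 4 °C and ultracentrifuged. The supernatant was TMT-labelled for LC-MS/MS, and each value is the fold change against the detergent-processed vehicle for the same replicate, using vsn-normalised intensities.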

Target	NP40-soluble protein abundance (concentration: 0.1mM)	NP40-soluble protein abundance (concentration: 0.5mM)	NP40-soluble protein abundance (concentration: 1mM)	NP40-soluble protein abundance (concentration: 2mM)	NP40-soluble protein abundance (concentration: 4mM)	NP40-soluble protein abundance (concentration: 6mM)	NP40-soluble protein abundance (concentration: 8mM)	NP40-soluble protein abundance (concentration: 10mM)
DBR1 (UniProt Q9UK59)	1.04 ± 0.071	1.06 ± 0.053	1.04 ± 0.066	1.03 ± 0.066	1.02 ± 0.051	0.973 ± 0.11	1.03 ± 0.056	1.03 ± 0.044
UniProt Q9UEY8 and related entries	1.02 ± 0.043	1.04 ± 0.042	1.01 ± 0.019	1.02 ± 0.018	1.01 ± 0.014	1.02 ± 0.035	0.99 ± 0.023	1.004 ± 0.0086
UniProt Q9ULI0 and related entries	1.14 ± 0.1	1.52 ± 0.32	1.69 ± 0.34	1.83 ± 0.46	1.86 ± 0.57	1.86 ± 0.44	1.75 ± 0.44	1.72 ± 0.48
MTMR6 (UniProt Q9Y217)	1.05 ± 0.066	1.01 ± 0.054	–	–	–	–	–	–
UniProt Q9UL15 and related entries	0.98 ± 0.011	1.02 ± 0.05	0.964 ± 0.032	0.988 ± 0.024	0.976 ± 0.035	0.993 ± 0.018	0.971 ± 0.01	0.979 ± 0.029
UniProt Q9UKI8 and related entries	1.06 ± 0.029	1.04 ± 0.028	0.986 ± 0.039	0.998 ± 0.025	1 ± 0.059	0.993 ± 0.041	0.953 ± 0.021	0.977 ± 0.054
CNOT7 (UniProt Q9UIV1)	1.12 ± 0.082	1.12 ± 0.033	1.23 ± 0.044	1.22 ± 0.06	1.29 ± 0.038	1.25 ± 0.037	1.3 ± 0.061	1.26 ± 0.076
UniProt Q9UPN4-2|Q9UPN4-3|I3L2J8 and related entries	1.02 ± 0.056	1.01 ± 0.049	1.15 ± 0.14	1.18 ± 0.14	1.35 ± 0.12	1.45 ± 0.21	1.47 ± 0.26	1.7 ± 0.26
UniProt Q9ULE6	1.09 ± 0.067	1.11 ± 0.05	1.08 ± 0.084	1.03 ± 0.12	1.06 ± 0.092	0.991 ± 0.1	1.05 ± 0.045	1.02 ± 0.048
